In article PMC10515036:
No constants are given. Whether binding was seen depends on the method and setting. In cells and extracts the contact can be indirect. Some results given as binding are weak or reduced against the parent protein; the word gives no strength.

Amino acid sequences for entries named in this document (tags omitted).
UniProt P59941: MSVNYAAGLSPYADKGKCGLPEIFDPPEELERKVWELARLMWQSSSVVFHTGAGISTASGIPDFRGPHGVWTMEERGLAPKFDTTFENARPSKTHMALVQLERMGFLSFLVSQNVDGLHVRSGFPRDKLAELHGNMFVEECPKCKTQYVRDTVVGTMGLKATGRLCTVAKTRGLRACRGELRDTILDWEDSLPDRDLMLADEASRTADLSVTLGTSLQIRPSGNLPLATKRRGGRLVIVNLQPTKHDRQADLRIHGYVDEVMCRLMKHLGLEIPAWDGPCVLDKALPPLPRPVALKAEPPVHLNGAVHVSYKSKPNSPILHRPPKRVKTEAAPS
UniProt Q91ZW3: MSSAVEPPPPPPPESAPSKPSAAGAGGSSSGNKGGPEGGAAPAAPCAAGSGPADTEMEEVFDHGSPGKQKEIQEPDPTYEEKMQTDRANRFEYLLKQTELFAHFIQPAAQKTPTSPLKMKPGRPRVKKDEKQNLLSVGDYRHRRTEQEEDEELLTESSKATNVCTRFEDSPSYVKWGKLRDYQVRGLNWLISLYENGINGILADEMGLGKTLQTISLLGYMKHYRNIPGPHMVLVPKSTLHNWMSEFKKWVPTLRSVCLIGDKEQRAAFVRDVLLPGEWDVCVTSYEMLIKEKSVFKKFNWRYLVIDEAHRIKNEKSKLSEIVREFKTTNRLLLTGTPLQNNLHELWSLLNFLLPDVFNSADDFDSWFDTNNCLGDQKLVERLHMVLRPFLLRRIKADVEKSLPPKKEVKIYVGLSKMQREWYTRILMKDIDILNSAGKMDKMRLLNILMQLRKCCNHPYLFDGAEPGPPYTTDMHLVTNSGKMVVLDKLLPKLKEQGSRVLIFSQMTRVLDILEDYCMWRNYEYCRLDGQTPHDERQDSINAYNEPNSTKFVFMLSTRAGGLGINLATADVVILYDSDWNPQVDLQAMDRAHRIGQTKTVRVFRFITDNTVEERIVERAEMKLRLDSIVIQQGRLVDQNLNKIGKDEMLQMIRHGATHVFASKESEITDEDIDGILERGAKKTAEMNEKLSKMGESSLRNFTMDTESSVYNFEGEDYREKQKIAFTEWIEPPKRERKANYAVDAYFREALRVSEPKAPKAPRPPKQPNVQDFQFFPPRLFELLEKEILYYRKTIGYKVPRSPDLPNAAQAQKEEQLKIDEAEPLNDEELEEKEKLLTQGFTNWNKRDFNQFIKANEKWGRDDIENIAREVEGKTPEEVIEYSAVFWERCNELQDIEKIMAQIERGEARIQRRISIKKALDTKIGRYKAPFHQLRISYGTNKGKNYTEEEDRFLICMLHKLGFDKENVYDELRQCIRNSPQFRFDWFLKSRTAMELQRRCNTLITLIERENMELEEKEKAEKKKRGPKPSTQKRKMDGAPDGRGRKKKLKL

Target: Sirt6 (mouse (endogenous in RAW264.7)) (UniProt P59941)
Assay: co-IP; lysate of macrophages treated with Ac-LDL; immunoprecipitation with SNF2H or Sirt6 antibody, Western blot for the other protein; control IgG as negative control; Proteintech Immunoprecipitation Kit KIP-2

- binding: binds
Substance: ISWI-chromatin remodeler SNF2H (from UniProt Q91ZW3 1-1051)
